Test results as given in publication PMC3307762.
Changes are numbered by the printed parent chain. No constants are given. Whether binding was seen depends on the method and setting. Binding seen in cells or lysates may run through a third protein. Some entries that bind do so weakly or less than the wild type. Tags and fused reporters may be left off the sequences shown.

Sequences of proteins named here, by UniProt entry; tags and fusion partners are left off.
UniProt Q14974: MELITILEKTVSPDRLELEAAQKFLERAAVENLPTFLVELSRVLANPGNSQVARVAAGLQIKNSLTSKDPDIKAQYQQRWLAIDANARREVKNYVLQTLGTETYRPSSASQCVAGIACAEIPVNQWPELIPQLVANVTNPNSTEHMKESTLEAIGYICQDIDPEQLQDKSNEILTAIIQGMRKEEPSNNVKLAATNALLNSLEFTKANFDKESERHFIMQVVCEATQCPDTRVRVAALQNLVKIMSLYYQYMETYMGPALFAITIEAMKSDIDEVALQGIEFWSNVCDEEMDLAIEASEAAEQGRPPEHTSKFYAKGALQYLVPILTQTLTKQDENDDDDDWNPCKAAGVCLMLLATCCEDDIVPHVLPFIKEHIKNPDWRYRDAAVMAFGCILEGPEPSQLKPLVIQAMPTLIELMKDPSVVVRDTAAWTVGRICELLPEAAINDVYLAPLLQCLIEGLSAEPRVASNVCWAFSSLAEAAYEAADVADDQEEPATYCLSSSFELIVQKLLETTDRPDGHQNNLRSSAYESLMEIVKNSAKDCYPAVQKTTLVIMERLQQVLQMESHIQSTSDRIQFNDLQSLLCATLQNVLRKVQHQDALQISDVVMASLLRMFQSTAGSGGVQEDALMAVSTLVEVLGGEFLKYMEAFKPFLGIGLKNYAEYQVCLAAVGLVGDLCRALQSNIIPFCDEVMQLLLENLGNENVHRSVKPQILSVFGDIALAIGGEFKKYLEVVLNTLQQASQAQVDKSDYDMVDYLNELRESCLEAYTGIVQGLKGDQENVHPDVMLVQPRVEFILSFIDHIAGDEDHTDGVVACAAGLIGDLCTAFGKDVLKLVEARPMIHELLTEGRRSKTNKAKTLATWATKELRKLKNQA
UniProt Q92973: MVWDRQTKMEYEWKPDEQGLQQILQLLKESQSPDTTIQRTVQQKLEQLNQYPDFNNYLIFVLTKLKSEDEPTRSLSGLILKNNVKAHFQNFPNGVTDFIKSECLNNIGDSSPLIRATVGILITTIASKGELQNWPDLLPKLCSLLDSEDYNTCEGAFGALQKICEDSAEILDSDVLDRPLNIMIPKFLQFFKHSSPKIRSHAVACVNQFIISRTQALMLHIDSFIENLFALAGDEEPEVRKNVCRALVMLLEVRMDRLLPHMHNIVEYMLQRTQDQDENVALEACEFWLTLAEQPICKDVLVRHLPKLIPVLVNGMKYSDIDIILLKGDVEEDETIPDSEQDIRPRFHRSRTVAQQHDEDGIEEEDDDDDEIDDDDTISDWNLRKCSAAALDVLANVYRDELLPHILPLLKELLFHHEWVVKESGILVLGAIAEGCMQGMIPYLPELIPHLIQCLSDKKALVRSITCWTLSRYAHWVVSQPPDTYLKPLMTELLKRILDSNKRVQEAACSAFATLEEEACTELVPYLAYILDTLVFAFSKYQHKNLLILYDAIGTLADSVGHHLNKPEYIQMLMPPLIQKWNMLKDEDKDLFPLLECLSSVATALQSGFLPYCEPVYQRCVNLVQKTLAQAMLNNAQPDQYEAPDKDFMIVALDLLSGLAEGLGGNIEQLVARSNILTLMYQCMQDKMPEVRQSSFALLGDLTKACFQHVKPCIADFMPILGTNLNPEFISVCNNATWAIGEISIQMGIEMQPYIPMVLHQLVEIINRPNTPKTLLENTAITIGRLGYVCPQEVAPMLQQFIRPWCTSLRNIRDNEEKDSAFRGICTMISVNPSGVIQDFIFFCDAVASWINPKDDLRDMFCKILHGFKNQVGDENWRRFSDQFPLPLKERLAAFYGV

Experiments:
Assay in all cases: co-IP; anti-HA i.p. of HA-necdin (wild type or mutants) from transfected HEK293 cells, 1 mg total lysate, Western blot for transportin 1 or importin β1; control i.p. with an irrelevant antibody
HA-necdin D234P (mouse) = biological target: T1, HA-necdin D234P (mouse) (UniProt P25233)
T1 sequence: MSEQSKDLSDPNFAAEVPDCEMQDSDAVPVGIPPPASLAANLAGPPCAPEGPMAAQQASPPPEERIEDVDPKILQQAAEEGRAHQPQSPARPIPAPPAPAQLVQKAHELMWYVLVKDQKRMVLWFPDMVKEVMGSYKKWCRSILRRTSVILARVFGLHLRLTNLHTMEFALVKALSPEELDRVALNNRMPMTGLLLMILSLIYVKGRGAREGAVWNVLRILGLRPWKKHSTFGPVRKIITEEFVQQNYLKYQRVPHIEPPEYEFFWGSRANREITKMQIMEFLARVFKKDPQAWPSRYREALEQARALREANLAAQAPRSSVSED

[1] = biological target: T2, HA-necdin (in HEK293 cells) (mouse) (UniProt P25233)
T2 sequence: T1 sequence with P234D

HA-necdin G233A (mouse) = biological target: T3, HA-necdin G233A (mouse) (UniProt P25233)
T3 sequence: T1 sequence with G233A, P234D

Row | binding (HA-necdin D234P (mouse)) | binding [1] | binding (HA-necdin G233A (mouse)) | Substance
1 | binds | binds | – | importin β1 (in HEK293 cells) (from UniProt Q14974 1-876)
2 | binds | binds | binds | transportin 1 (in HEK293 cells) (from UniProt Q92973 1-898)
